Laboratory results from PMC4225773 (Bioorganic & medicinal chemistry letters, 2014).

Assay: Cytotoxicity to uninfected THP1 macrophage cells
Details: human

**Q.** For `O=C(CCCCCCC(=O)Nc1ccccc1)NO` [SAHA, suberoylanilide hydroxamic acid, reference compound], which IC50 is on record?
**A.** Its IC50 is greater than 10 µg/mL.
